Screening data, single-dose tests

Sequences of proteins named here, by UniProt entry; tags and fusion partners are left off.
UniProt I6X8D2, whole entry: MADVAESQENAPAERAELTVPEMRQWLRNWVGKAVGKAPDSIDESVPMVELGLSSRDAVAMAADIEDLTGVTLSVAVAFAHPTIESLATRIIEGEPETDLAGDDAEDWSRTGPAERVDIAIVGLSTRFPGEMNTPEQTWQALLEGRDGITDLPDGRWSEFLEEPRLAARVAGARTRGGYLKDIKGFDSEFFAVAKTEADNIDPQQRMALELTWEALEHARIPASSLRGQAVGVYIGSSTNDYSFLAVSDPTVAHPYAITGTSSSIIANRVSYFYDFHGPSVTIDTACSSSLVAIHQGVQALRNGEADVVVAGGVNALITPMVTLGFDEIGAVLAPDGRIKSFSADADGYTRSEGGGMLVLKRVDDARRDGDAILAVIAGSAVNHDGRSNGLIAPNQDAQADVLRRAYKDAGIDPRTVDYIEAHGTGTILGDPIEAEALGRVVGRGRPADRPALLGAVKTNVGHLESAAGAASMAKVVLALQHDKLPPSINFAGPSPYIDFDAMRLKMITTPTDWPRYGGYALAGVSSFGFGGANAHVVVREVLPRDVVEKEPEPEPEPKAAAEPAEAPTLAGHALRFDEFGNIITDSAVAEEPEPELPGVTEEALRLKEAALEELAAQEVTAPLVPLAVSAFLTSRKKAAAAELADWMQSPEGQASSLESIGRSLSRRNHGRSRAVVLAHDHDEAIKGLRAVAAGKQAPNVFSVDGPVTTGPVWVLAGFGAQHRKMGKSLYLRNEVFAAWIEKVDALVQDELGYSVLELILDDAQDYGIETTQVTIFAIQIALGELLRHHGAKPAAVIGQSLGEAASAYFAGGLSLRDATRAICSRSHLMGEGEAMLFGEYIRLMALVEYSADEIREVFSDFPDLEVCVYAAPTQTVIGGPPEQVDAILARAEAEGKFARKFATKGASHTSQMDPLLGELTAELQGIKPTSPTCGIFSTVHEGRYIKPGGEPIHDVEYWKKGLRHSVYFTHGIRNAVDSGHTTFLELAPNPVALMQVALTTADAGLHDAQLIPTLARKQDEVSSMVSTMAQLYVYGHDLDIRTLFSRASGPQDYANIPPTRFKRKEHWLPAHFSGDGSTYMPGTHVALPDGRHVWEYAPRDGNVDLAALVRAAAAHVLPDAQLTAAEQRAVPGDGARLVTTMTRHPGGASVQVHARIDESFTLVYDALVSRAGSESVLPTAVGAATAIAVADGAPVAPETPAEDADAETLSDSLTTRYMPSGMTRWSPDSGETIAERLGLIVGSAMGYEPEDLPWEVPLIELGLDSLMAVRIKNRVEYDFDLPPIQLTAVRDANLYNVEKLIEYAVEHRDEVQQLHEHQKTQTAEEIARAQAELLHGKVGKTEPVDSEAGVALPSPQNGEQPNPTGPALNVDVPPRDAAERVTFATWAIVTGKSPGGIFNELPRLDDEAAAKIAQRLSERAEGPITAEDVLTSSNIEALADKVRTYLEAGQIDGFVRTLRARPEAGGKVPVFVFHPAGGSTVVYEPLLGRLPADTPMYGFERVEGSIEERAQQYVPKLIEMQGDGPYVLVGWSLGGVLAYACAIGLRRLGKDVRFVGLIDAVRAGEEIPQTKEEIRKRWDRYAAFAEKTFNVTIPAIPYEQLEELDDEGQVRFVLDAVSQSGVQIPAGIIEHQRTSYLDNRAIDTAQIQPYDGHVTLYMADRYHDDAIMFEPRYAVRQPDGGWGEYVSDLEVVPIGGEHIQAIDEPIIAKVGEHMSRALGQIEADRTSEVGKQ
UniProt P9WNZ1, whole entry: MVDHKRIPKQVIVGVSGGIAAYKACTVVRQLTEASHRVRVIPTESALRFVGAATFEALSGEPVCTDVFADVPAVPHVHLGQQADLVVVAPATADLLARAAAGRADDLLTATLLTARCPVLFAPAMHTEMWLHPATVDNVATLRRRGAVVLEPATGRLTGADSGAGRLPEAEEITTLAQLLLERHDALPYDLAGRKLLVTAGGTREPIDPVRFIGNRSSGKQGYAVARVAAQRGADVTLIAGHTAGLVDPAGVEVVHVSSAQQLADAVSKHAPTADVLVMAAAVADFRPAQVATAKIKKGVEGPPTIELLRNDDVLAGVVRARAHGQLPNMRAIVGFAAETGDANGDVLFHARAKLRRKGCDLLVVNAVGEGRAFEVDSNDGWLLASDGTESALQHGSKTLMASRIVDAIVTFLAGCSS
UniProt P9WFT3, whole entry: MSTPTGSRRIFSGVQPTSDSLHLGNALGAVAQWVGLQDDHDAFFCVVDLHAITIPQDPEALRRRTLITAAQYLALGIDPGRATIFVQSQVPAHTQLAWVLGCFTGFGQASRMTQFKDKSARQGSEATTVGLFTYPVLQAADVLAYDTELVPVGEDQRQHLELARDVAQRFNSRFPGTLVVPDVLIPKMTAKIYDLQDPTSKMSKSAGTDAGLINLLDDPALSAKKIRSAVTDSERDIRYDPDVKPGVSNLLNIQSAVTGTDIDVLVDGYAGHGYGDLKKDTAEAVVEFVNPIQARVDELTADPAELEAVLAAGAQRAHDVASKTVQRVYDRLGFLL

From ChEMBL document CHEMBL3988442, “University of Dundee, Small-Polar-MMV Screening Library” (2021).

Pks13 thioesterase: 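Polyketide synthase Pks13, Mycobacterium tuberculosis (UniProt I6X8D2). Enzyme assay of the thioesterase domain of polyketide synthase 13; the read-out is not stated. Concentration: 30 µM. Higher reads as stronger inhibition (inferred from which compounds were picked for retests). Of about 67,000 compounds tested this way, about 300 (0.46%) reached 50% or more in at least one test.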
CoaBC: 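Enzyme assay of CoaBC with a phosphate dye (Biomol Green) read at 650 nm. Target: Coenzyme A biosynthesis protein CoaBC, Mycobacterium tuberculosis (UniProt P9WNZ1). Concentration: 30 µM. Higher reads as stronger inhibition, judged from the few compounds that gave an IC50. Most strong results did not repeat in a second test. Size under these conditions: about 67,000 compounds, about 40 of them at 50% or above in at least one test.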
Leishmania in macrophages: 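Cell assay of Leishmania donovani living inside macrophages; the read-out is not stated. Concentration: 30 µM. Direction is inferred from retests: higher values go with stronger inhibition. About 69,000 compounds were tested under these conditions; 1.5% (about 1,000) showed 50% or more at least once.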
MtTrpRS: 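Tryptophan-tRNA ligase, Mycobacterium tuberculosis (UniProt P9WFT3). Enzyme assay of tryptophanyl-tRNA synthetase; the read-out is not stated. Concentration: 10 µM. Direction is not recorded; retested compounds ran higher, which suggests that high means inhibition. Of about 65,000 compounds tested this way, about 64 (0.098%) reached 50% or more in at least one test.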

The filed quantity is “Percent Effect” (%).
The controls that fix the scale are not given in the record; negative values are as filed.
Compounds were drawn at random from those tested, without regard to their results.
Two or more numbers in one place are separate tests of the same structure; such repeats can differ widely.

* O=C(O)C(F)(F)F.O=C(O)C(F)(F)F.[H][C@@]12CCCO[C@]1([H])[C@H](N(C)Cc1ccco1)CN2Cc1ccco1 : Leishmania in macrophages: 34.89%
* CN1CCC(Cc2noc(-c3cccc4c3OCC4)n2)CC1 : Pks13 thioesterase: -1.276%; CoaBC: -0.6053%; Leishmania in macrophages: 31.67%; MtTrpRS: -3.266%
* Cc1cnn(CCNCc2nnc(-c3occc3C)o2)c1 : Pks13 thioesterase: -26.59%; CoaBC: -5.362%; Leishmania in macrophages: 33%; MtTrpRS: 2.783%
* CCN1CCCc2cc(-c3cncn3C(C)CN3CCOCC3)ccc21.Cl (centres undefined) : Leishmania in macrophages: 42.44%
* COC(C)(C)CC(C)NC(=O)NC1CCN(Cc2ccccn2)CC1 (centres undefined) : Pks13 thioesterase: -5.47%; CoaBC: -7.391%; Leishmania in macrophages: -3.966%; MtTrpRS: -4.335%
* CSCc1noc(CN2CC3(CCCC3)CC2=O)n1 : Pks13 thioesterase: -8.954%; CoaBC: -0.8526%; Leishmania in macrophages: -23.62%; MtTrpRS: 5.44%
* CCOC(=O)CNC(=O)C1OC(c2ccccc2)=NN1C(C)=O (centres undefined) : Pks13 thioesterase: -21.96%; CoaBC: 5.825%; Leishmania in macrophages: 12.96%
* Cc1c(C(=O)N2CCN(C)[C@@H]3CS(=O)(=O)C[C@@H]32)[nH]c2ccc(F)cc12 : Pks13 thioesterase: -19.15%; CoaBC: 17.85%; MtTrpRS: 0.149%
* Cc1cc(C)n(CCC2CC(=O)Nc3cc(O)c(C)cc32)n1 (centres undefined) : Pks13 thioesterase: 7.417%; CoaBC: 1.951%; Leishmania in macrophages: -14.03%; MtTrpRS: 2.886%
* O=C(CCn1ncc2c(Cl)cccc21)NCCCn1cccn1 : Pks13 thioesterase: -15.64%; CoaBC: 5.543%; Leishmania in macrophages: 13.78%; MtTrpRS: 1.813%
* CN(C)CCN1CCOCC2(CCN(Cc3ccc[nH]3)CC2)C1.O=C(O)C(F)(F)F.O=C(O)C(F)(F)F.O=C(O)C(F)(F)F : Leishmania in macrophages: 22.74%
* CC(=O)NCCC1CCCCN1S(=O)(=O)c1ccc2ccccc2c1 (centres undefined) : Pks13 thioesterase: -9.682%; CoaBC: 12.44%; Leishmania in macrophages: 34.09%; MtTrpRS: 7.244%
* CS(=O)(=O)N1CCCCC12CCCN(Cc1nccs1)C2.O=C(O)C(F)(F)F (centres undefined) : Leishmania in macrophages: -10.72% & 13.2%
* Cc1cnc(-c2nc(O)c3c(n2)CN(C(=O)C2CCOC2)CC3)cn1 (centres undefined) : Pks13 thioesterase: 4.73%; CoaBC: -4.662%; Leishmania in macrophages: 13.11%; MtTrpRS: -9.446%
* CN(C)c1cc(C(=O)NC2(c3cccc(F)c3)CCOCC2)ccn1 : Pks13 thioesterase: -2.508%; CoaBC: -1.096%; Leishmania in macrophages: -21.14%; MtTrpRS: -0.7158%
* COCCn1cnc2ccc(NC(=O)C3CC3)cc2c1=O : Pks13 thioesterase: 12.88%; CoaBC: 0.6075%; Leishmania in macrophages: 1.853%; MtTrpRS: -1.768%